Measured values: PMC7819943, “Rice protein-binding microarrays: a tool to detect cis-acting elements near promoter regions in rice”
The other results are listed elsewhere or left out.

Biological target: T1, OsSMF1 (Oryza sativa, UniProt Q6ZLB0 1-436)
T1 sequence: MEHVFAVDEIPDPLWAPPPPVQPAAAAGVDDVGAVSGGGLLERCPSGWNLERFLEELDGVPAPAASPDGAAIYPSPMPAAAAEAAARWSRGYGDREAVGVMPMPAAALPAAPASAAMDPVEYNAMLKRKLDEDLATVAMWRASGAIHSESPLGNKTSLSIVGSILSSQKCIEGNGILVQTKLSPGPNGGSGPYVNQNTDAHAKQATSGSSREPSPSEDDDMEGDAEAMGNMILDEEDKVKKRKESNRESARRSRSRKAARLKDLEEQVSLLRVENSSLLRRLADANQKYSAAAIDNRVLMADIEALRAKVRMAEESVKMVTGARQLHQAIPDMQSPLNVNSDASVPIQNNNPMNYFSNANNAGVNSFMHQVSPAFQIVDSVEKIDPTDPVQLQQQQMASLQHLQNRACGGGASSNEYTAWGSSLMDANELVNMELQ
Assay: protein-binding microarray (RPBM); PBS, 2% BSA, 51.3 ng/ul salmon testes DNA, 50 uM zinc acetate, 200 nM TF, 25 C, 1 h; high values mean tight binding
Settings: protein: recombinant; tags: N-terminal polyhistidine and DsRed monomer fusion (pET32a); chain copies: 2; label: CyDye5-dUTP incorporated in the synthesized complementary strand; 3' TTTTT single-stranded linker to array surface; dsDNA, one strand shown
How it was run: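 In PBS with 2% BSA, salmon testes DNA and 50 µM zinc acetate, 200 nM protein was incubated on a custom Agilent array at 25 °C for 1 h and then washed off. The array had been made double-stranded by primer extension with Cy5-dUTP and blocked with 2% BSA. The proteins were transcription factors fused N-terminally to polyhistidine and DsRed, expressed in E. coli BL21-CodonPlus and purified on Ni–NTA. The binding signal is per-feature fluorescence intensity (arbitrary units) from an Axon 4000B scanner.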

| Sequence | binding signal |
| --- | --- |
| CATCTCTATCCATGTATTCATTAACACTGATGCTACATCTCGGAGTCACCTAGTGCAG | 3310 fluorescence intensity (a.u.) |
| AAACCTCTATCCACGTCATATTTTATTTCTTGCAAGTATTCGGAGTCACCTAGTGCAG | 20600 fluorescence intensity (a.u.) |
| GGCGGAGACGCGGGCGTGGCTCGGCGGCCTGCTAGTGTGACGGAGTCACCTAGTGCAG | 3340 fluorescence intensity (a.u.) |
| CCACGCTGACTTAGCCGCCGCGTCAGACAAAACCGGGATCCGGAGTCACCTAGTGCAG | 5500 fluorescence intensity (a.u.) |
| GAGCGAGTACAATAGCAGTCTACAAGTAAGTTGTAATCACCGGAGTCACCTAGTGCAG | 17800 fluorescence intensity (a.u.) |
| TGTGTATTATGTATTAATTTGATGAGGTATATTCACCATCCGGAGTCACCTAGTGCAG | 24300 fluorescence intensity (a.u.) |
| ATGATTTAATTACAAACAGATCCAGACTATGCCGTCGTGGCGGAGTCACCTAGTGCAG | 7340 fluorescence intensity (a.u.) |
| CAAACCAGGCTTGCAAGTTGTAACATAGAGGTTGGTAGGTCGGAGTCACCTAGTGCAG | 3270 fluorescence intensity (a.u.) |
| GACCGTTAAATATTTTAAAATGACTATATTACCCATCCTACGGAGTCACCTAGTGCAG | 3250 fluorescence intensity (a.u.) |
| TCTCTCACTGCATAGACACCTGTCATCCATACATCCATCTCGGAGTCACCTAGTGCAG | 3260 fluorescence intensity (a.u.) |
| TATTCAATGCTTTTGTATGTGCTGGAATTTGTCAATGGTGCGGAGTCACCTAGTGCAG | 4420 fluorescence intensity (a.u.) |
| GCCAGATCTGGGCTCGCCGACGCCGTTGGCAGCCTCCTCCCGGAGTCACCTAGTGCAG | 3190 fluorescence intensity (a.u.) |
| TGTCAATAATGCATCCTGCAGCTAACATCAAATGACATGGCGGAGTCACCTAGTGCAG | 3150 fluorescence intensity (a.u.) |
| GATTTGTTTTGGTGGCCGCCGGGCCCAACCTGGCATCAACCGGAGTCACCTAGTGCAG | 6680 fluorescence intensity (a.u.) |
| CGTGAGGGCACGTTATGTCGTGGGGTGTACAAAGAAAGGACGGAGTCACCTAGTGCAG | 3170 fluorescence intensity (a.u.) |
| CTTAATGTGCCGTGTTACTGCCATGTAAGCTGGACGTTATCGGAGTCACCTAGTGCAG | 4920 fluorescence intensity (a.u.) |
| TGCAGACATGGGGACAAATTGTCACGACGACAGCCTGGATCGGAGTCACCTAGTGCAG | 3710 fluorescence intensity (a.u.) |
| CAGATCGAATTGCCACGTAATGCCACGTAAGTGCCACGTCCGGAGTCACCTAGTGCAG | 32500 fluorescence intensity (a.u.) |
| ACACCCAGCTGCAATATGGATCACCAAACACCTCGATCCACGGAGTCACCTAGTGCAG | 3780 fluorescence intensity (a.u.) |
| ATAAAGAGTCATCAGGAGTACACGTTAGACATGCAAATTCCGGAGTCACCTAGTGCAG | 4770 fluorescence intensity (a.u.) |
| CCACCGCCGCGTCCATGGCCGCCACCTTCGTCAGCCTCACCGGAGTCACCTAGTGCAG | 3220 fluorescence intensity (a.u.) |

| Sequence | binding signal |
| --- | --- |
| ATCGTTTCGCCGTCGATTTGCTGTCACCATACCCATGTAGCGGAGTCACCTAGTGCAG | 3850 fluorescence intensity (a.u.) |
| ATATACTTAAGTGCCAAGTGTCAATATTTGTGGTTTTCTGCGGAGTCACCTAGTGCAG | 4500 fluorescence intensity (a.u.) |
| GAGTGTGCTCCCCTAACCCACTCCCAATATTGCCACTCCCCGGAGTCACCTAGTGCAG | 3240 fluorescence intensity (a.u.) |
| CAATCATATAATTGCTGCATGGATGAGCATATAAGTCGCACGGAGTCACCTAGTGCAG | 3530 fluorescence intensity (a.u.) |
| GGAGGAGGAGGAGGTAGGGGAAATCCCCGTCGGCCGTCGGCGGAGTCACCTAGTGCAG | 4610 fluorescence intensity (a.u.) |
| TGCGGGATTACGGAATGGGGTTTGATGGGAGTTGCGTCATCGGAGTCACCTAGTGCAG | 5240 fluorescence intensity (a.u.) |
| GCGGTCGCCCTGCGCACTCTCGCCGCGTCACCACCGGAGCCGGAGTCACCTAGTGCAG | 6390 fluorescence intensity (a.u.) |
| GATGGACCTTATTCCCACGGAGACCTGGCAGGATTTAGCTCGGAGTCACCTAGTGCAG | 3200 fluorescence intensity (a.u.) |
| GCGCAAAAGCAAAGCCACGCTTTTCGTCAGGTTGATCTCTCGGAGTCACCTAGTGCAG | 3490 fluorescence intensity (a.u.) |
| TTGGCGTCCGCGCTGGTGACGTTGGCACTGGCGTAGGCGCCGGAGTCACCTAGTGCAG | 9280 fluorescence intensity (a.u.) |
| GATTAGCTTGTGTCATTCGCTAGAATAGAATGATGTGGTTCGGAGTCACCTAGTGCAG | 5210 fluorescence intensity (a.u.) |
| GAGTCCGGCGTGATGCCGTGATGACGCCGCAACGCGGCATCGGAGTCACCTAGTGCAG | 9060 fluorescence intensity (a.u.) |
| ATCTACTGATTTACAACCTCCTTAATTAACAAGCACGGGTCGGAGTCACCTAGTGCAG | 24600 fluorescence intensity (a.u.) |
| GTCGGAGCTCCTGTCGGCGCGTCGCGTCGCCACGTACGGCCGGAGTCACCTAGTGCAG | 8050 fluorescence intensity (a.u.) |
| TCCCTCCTCTTCCACGTCCGCGCAGCCGGCTCCCTCCACACGGAGTCACCTAGTGCAG | 7740 fluorescence intensity (a.u.) |
| GATTCCTGCTGGCAATAACACACTATGATATCTGCGACCACGGAGTCACCTAGTGCAG | 4120 fluorescence intensity (a.u.) |
| GGCTTTGGGGATTGGATATCCGAGGCCGTCGATGACGTGGCGGAGTCACCTAGTGCAG | 34300 fluorescence intensity (a.u.) |
| GACCTCCGCTGGGGTGGGTCCACCAACAGGCAACGCATACCGGAGTCACCTAGTGCAG | 6040 fluorescence intensity (a.u.) |
| GCCTAGGTCTACAGTTCACTCGCTATCCACGCACAGCCCGCGGAGTCACCTAGTGCAG | 3350 fluorescence intensity (a.u.) |
| GCATGCTAATTAAAGTGTTCGTTGCTGTTTCGTCGCATGCCGGAGTCACCTAGTGCAG | 4710 fluorescence intensity (a.u.) |
| CAAGATATGCGTTTGTGCCTTCATGGGTGAGTCCACGCGTCGGAGTCACCTAGTGCAG | 3850 fluorescence intensity (a.u.) |

Some of the entries so far, field by field.
TCCCTCCTCTTCCACGTCCGCGCAGCCGGCTCCCTCCACACGGAGTCACCTAGTGCAG
  binding signal = 7740 fluorescence intensity (a.u.)
GATTCCTGCTGGCAATAACACACTATGATATCTGCGACCACGGAGTCACCTAGTGCAG
  binding signal = 4120 fluorescence intensity (a.u.)
GGCTTTGGGGATTGGATATCCGAGGCCGTCGATGACGTGGCGGAGTCACCTAGTGCAG
  binding signal = 34300 fluorescence intensity (a.u.)
